Reference: PubChem BioAssay AID2685 (National Center for Advancing Translational Sciences (NCATS), 2010)
Several values for one entry are separate records, joined by “and”; a condition that tells them apart may be missing. Equal entries are not always repeated. Some of the results follow. These are further read-outs of the screen, such as a control signal, another cell line or another target. No call is given for them. Most of these compounds were active or inconclusive in the main read-out, so they are no random draw. Words in brackets tell the shape of the fitted curve; partial curves, single points and poor fits give uncertain potencies.

Experiment: qHTS Assay for Lipid Storage Modulators in Drosophila S3 Cells;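 as to cell number change: cells counted by Cell Tracker Red CMTPX staining in the red channel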
Settings: BODIPY lipid droplet fluorescence, 18-24 h; for cell number change: measured here: cell count max response, cells fed with added oleic acid
In short: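 Drosophila S3 cells loaded with oleic acid (400 uM, as added) and compounds at several concentrations; lipid droplets imaged by 488-nm laser-scanning cytometry, 500–530 nm intensity and object ratio to cell channel. Percent activity normalized to 20 uM Triacsin C.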

[1] = measured here: lipid fluorescence (Fed channel) AC50, cells fed with added oleic acid
[2] = measured here: cell number channel AC50, cells fed with added oleic acid

In the case of `O=C(CSCC(=O)c1ccccc1)Nc1ccccc1Cl`, the cell number change is reported as 20.7% and the AC50 [1] is reported as 29.1 µM [rising, single point].

For `COc1ccc(/C(N)=N/O)c(OC)c1`, the cell number change was -99.8%, the AC50 [2] was 18.4 µM [falling, partial curve] and the AC50 [1] was 18.4 µM [falling, partial curve].

With `CC1CN(CC(=O)Nc2ccc([N+](=O)[O-])cc2Br)CC(C)O1` (stereo not given) the cell number change was -5.19% and the AC50 [1] was 6.51 µM [falling, single point].

For `CCN1CCN(CCn2c(=S)[nH]c3cc4c(cc3c2=O)OCO4)CC1`, the AC50 [2] was 0.411 µM [rising, full curve] and the AC50 [1] was 0.164 µM [rising, full curve, poor fit].

For `Cn1c(SCC(=O)NC2CC2)nnc1-c1ccco1`, the cell number change was 3.11% and the AC50 [1] was 1.03 µM [falling, full curve].

In the case of `O=C1CN(C(=O)c2ccc(Br)o2)C(c2ccc(F)cc2)c2cc(Cl)ccc2N1` (stereo not given), the cell number change is reported as 21.7% and the AC50 [2] is reported as 3.66 µM [rising, single point].

For `CCC(=O)N1CCc2cc(S(=O)(=O)N3CCCCCC3)ccc21`, the cell number change was -33.7%, the AC50 [2] was 0.0184 µM [falling, full curve, poor fit] and the AC50 [1] was 6.51 µM [falling, single point].

In the case of `Cn1ccnc1SCC(=O)Nc1ccc(F)c([N+](=O)[O-])c1`, the cell number change is reported as 20.5%, the AC50 [2] is reported as 0.461 µM [rising, full curve, poor fit] and the AC50 [1] is reported as 0.651 µM [rising, full curve, poor fit].

With `O=C(c1ccco1)N1CCN(C2=NS(=O)(=O)c3ccccc32)CC1` the cell number change was 13.1% and the AC50 [1] was 5.17 µM [falling, partial curve, poor fit].

In the case of `CCOC(=O)c1c(-c2ccc(-c3ccccc3)cc2)csc1NC(=O)CCN1CCOCC1`, the cell number change is reported as -0.142% and the AC50 [1] is reported as 0.103 µM [rising, full curve, poor fit].

With `Cc1cc2c(cc1C)NC(=O)CC(C(F)(F)C(F)(F)C(F)(F)F)=N2` the cell number change was -33.3%, the AC50 [2] was 29.1 µM [falling, single point] and the AC50 [1] was 29.1 µM [falling, single point].

In the case of `Cc1cccc(Nc2nnc(SCC(=O)Nc3cccc(S(=O)(=O)N4CCCCC4)c3)s2)c1`, the cell number change is reported as -22.2% and the AC50 [1] is reported as 29.1 µM [falling, single point].

In the case of `CSc1nc2ccc(NC(=O)C3CC(=O)N(Cc4ccco4)C3)cc2s1` (stereo not given), the cell number change is reported as -16% and the AC50 [1] is reported as 0.411 µM [rising, partial curve, poor fit].

`CCCc1nnc(NC(=O)COc2ccc3c(c2)OCO3)s1` showed a cell number change of -0.427%.

In the case of `COc1cc(N/N=C(\C)c2ccc(O)c(C)c2)nc(-c2ccccc2)n1`, the cell number change is reported as -51.9% and the AC50 [2] is reported as 29.1 µM [falling, single point].

With `COc1ccc(N2CCN(C(=O)c3cccc(NS(=O)(=O)c4cccc(F)c4)c3)CC2)cc1` the cell number change was -28.2% and the AC50 [1] was 1.64 µM [rising, partial curve].

Work on `CN(C)S(=O)(=O)c1ccc2c(c1)C(CC(=O)O)OC2=O` (stereo not given) yielded a cell number change of -14.3%.

In the case of `COc1cccc(CNC(=O)CCCn2nc(C)c3c(C)n(-c4ccc(C)cc4)nc3c2=O)c1OC`, the cell number change is reported as 1.19% and the AC50 [2] is reported as 3.66 µM [rising, single point].

For `CCc1cccc(OCC(=O)N(C)CC(=O)Nc2cccc(F)c2)c1`, the cell number change was 30.7% and the AC50 [2] was 18.4 µM [rising, single point].

`COc1ccc(C(C)=O)cc1CSc1ccc(S(=O)(=O)N2CCCCC2)cn1` showed a cell number change of -17.2%.

With `CCOc1ccc(S(=O)(=O)N2CCC(C(=O)NCc3ccccn3)CC2)cc1Cl` the cell number change was 17.9% and the AC50 [1] was 4.11 µM [rising, full curve].

For `CCn1c(SCC(=O)NCc2ccc3c(c2)OCO3)nnc1-c1cccs1`, the AC50 [2] was 6.51 µM [falling, single point].

With `CCCc1[nH]nc2c1C(c1ccc(OC)c(Cn3nnc4ccccc43)c1)C(C#N)=C(N)O2` (stereo not given) the cell number change was 3.03% and the AC50 [1] was 0.116 µM [rising, full curve, poor fit].

For `C=C(C)c1cccc(C(C)(C)NC(=O)NC(c2ccccc2)c2ccc(OC)cc2)c1` (stereo not given), the cell number change was 21.3%, the AC50 [2] was 0.651 µM [falling, single point] and the AC50 [1] was 1.16 µM [falling, single point].

Work on `COc1ccc(S(=O)(=O)NNC(=O)Nc2ccc(F)cc2F)c(OC)c1` yielded a cell number change of -51.1%.

With `C#CCn1c(=NC(=O)CN2C(=O)CCC2=O)sc2cc(S(N)(=O)=O)ccc21` the cell number change was 12%.

For `CC(C)(C)C(=O)Nc1ccccc1-c1nc2ccccc2[nH]c1=O`, the cell number change was -2.55% and the AC50 [1] was 29.1 µM [rising, single point].

With `O=[N+]([O-])c1ccccc1CN1CCN(S(=O)(=O)Cc2ccccc2)CC1` the cell number change was 57.1% and the AC50 [2] was 14.6 µM [rising, partial curve].

For `CCc1noc(C)c1C(=O)Nc1nc(-c2ccc(Cl)cc2Cl)c(C)s1`, the cell number change was 36.5%, the AC50 [2] was 2.59 µM [rising, full curve] and the AC50 [1] was 23.1 µM [rising, single point].

For `CCOc1ccccc1C(=O)N(Cc1cccs1)C1CCS(=O)(=O)C1` (stereo not given), the cell number change was -11% and the AC50 [1] was 20.6 µM [falling, single point].

In the case of `CCCC(=O)NCCc1nc2ccccc2n1C`, the cell number change is reported as 3.59% and the AC50 [1] is reported as 29.1 µM [falling, single point].

For `C#CCOc1nc(Nc2cccc([N+](=O)[O-])c2)nc(OCC#C)n1`, the cell number change was 0.475% and the AC50 [1] was 0.231 µM [rising, full curve, poor fit].

In the case of `CCOc1cccc(C(=O)Nc2cc(-c3nn4c(C)nnc4s3)ccc2C)c1`, the cell number change is reported as 8.23% and the AC50 [1] is reported as 0.184 µM [rising, full curve, poor fit].

For `O=C(c1ccc(COc2ccccc2Cl)o1)N1CCOCC1`, the cell number change was 34% and the AC50 [2] was 13 µM [rising, partial curve].

With `Cc1cc(NC(=O)CSc2ccccc2)no1` the cell number change was 1.06%.

In the case of `O=C1/C(=C/c2ccco2)CCc2ccccc21`, the cell number change is reported as -11.8% and the AC50 [1] is reported as 6.51 µM [rising, partial curve, poor fit].

In the case of `Cc1ccc(-n2c(SCC(N)=O)nc3c(c2=O)C2(CCCC2)Cc2ccccc2-3)cc1`, the cell number change is reported as 12.4% and the AC50 [1] is reported as 11.6 µM [rising, partial curve, poor fit].

For `CCOC(=O)C(CCCCP(=O)(c1ccccc1)c1ccccc1)(NC(C)=O)C(=O)OCC`, the cell number change was 19% and the AC50 [1] was 0.092 µM [falling, full curve, poor fit].

Compound `CCOC(=O)COc1ccc(S(=O)(=O)N2CCN(c3ccc(F)cc3)CC2)cc1` has a cell number change of -15.3%.

With `CCOC(=O)C1=C(C)NC(=S)N(C(C)=O)C1c1ccc(OC)c(OC)c1` (stereo not given) the cell number change was 18.4% and the AC50 [1] was 0.206 µM [rising, full curve].

For `COc1ccc(NC(=O)c2ccc(NC(=O)c3ccco3)cc2)c(OC)c1`, the cell number change was -7.69% and the AC50 [1] was 0.326 µM [falling, full curve, poor fit].

With `Cc1cc(-c2ccccc2)c(C#N)c(N)n1` the cell number change was -29.3%, the AC50 [2] was 0.461 µM [falling, full curve] and the AC50 [1] was 0.146 µM [falling, full curve, poor fit].

For `CSCCC(NC(=O)COc1ccccc1)C(=O)N1CCCCC1` (stereo not given), the cell number change was 20.7% and the AC50 [1] was 10.3 µM [rising, partial curve].

In the case of `CCOC(=O)C1CCCN(C(=O)c2ccc(C(=O)c3ccccc3)cc2)C1` (stereo not given), the cell number change is reported as -51.3%, the AC50 [2] is reported as 4.11 µM [falling, full curve] and the AC50 [1] is reported as 4.11 µM [falling, full curve].

In the case of `Cc1ccc(NC2CCCN(C(=O)c3cccnc3)C2)cc1C` (stereo not given), the cell number change is reported as -4.11% and the AC50 [1] is reported as 29.1 µM [rising, single point].

With `Cc1ccc(S(=O)(=O)N2c3ccccc3NC(=O)C2CC(=O)Nc2ccccc2)cc1` (stereo not given) the cell number change was 7.44%, the AC50 [2] was 0.0058 µM [falling, full curve, poor fit] and the AC50 [1] was 29.1 µM [rising, single point].

In the case of `COc1cccc(-c2ccc3ncnc(NCc4cccc(C)c4)c3c2)c1`, the cell number change is reported as -18.1% and 27.6% and the AC50 [1] is reported as 2.31 µM [rising, partial curve, poor fit].

In the case of `COCc1nnc(NC(=O)c2cc(C(=O)OC)cc([N+](=O)[O-])c2)s1`, the cell number change is reported as 10.8% and the AC50 [1] is reported as 0.58 µM [falling, single point].

With `CCCNC(=O)C(Cc1cccc(OC)c1)NC(=O)c1ccc(C(C)(C)C)cc1` (stereo not given) the cell number change was -32.2% and the AC50 [2] was 29.1 µM [falling, single point].

Compound `O=C(Oc1ccccc1)c1cc2ccccc2o1` has a cell number change of 13.5%.

In the case of `COc1ccc(NC(=O)/C(C#N)=C/c2ncc([N+](=O)[O-])n2C)c(OC)c1`, the cell number change is reported as 15.4% and the AC50 [1] is reported as 2.91 µM [rising, full curve].

For `O=C(Nc1cccc(S(=O)(=O)N2CCCCC2)c1)c1cc([N+](=O)[O-])ccc1N1CCOCC1`, the AC50 [1] was 0.13 µM [rising, full curve, poor fit].

With `CCN(c1ccccc1)S(=O)(=O)c1cccc(C(=O)NCc2ccccn2)c1` the AC50 [2] was 6.51 µM [rising, single point].

For `Cc1ccc(-n2ccnc2SCC(=O)O)cc1C`, the cell number change was 1.29% and the AC50 [1] was 6.51 µM [falling, single point].

In the case of `COC(=O)c1ccncc1C(=O)Nc1ccc(OC)cc1`, the cell number change is reported as 4.15% and the AC50 [1] is reported as 29.1 µM [falling, partial curve].

With `O=C(COc1ccc(Cl)cc1)N/N=C/c1cccc2cccnc12` the cell number change was -13.8%.

For `CCOC(=O)c1cc(-c2ccc(OC(F)F)cc2)nc2c1c(=O)[nH]c(=O)n2C`, the cell number change was -25%.

For `CCN(CC(=O)Nc1ccc(NC(C)=O)cc1)C(=O)c1cc(-c2ccccc2)nn1-c1ccccc1`, the cell number change was 30.9%, the AC50 [2] was 13 µM [rising, single point] and the AC50 [1] was 20.6 µM [rising, partial curve, poor fit].

In the case of `COc1ccc2oc(-c3ccc(C)c(NC(=O)c4ccc(N5CCOCC5)c([N+](=O)[O-])c4)c3)nc2c1`, the AC50 [2] is reported as 0.517 µM [falling, full curve] and the AC50 [1] is reported as 1.64 µM [falling, partial curve].
